Reference: US20230172981A1, “METHODS AND COMPOSITIONS FOR STIMULATION OF CHIMERIC ANTIGEN RECEPTOR T CELLS WITH HAPTEN LABELLED CELLS” (Seattle Children's Hospital (dba Seattle Children's …, priority 2020, published 2023)

Tested on: CD19+ Raji cells (lymphoma cell line)
Test: Flow cytometry for FL on hapten-labeled Raji cells
Assay type: cell-based

CCCCCCCCCCCCCCCC(=O)OCC(COP(=O)(O)OCCNC(=S)Nc1ccc2c(c1)C(=O)OC21c2ccc(O)cc2Oc2cc(O)ccc21)OC(=O)CCCCCCCCCCCCCCC (centres unmarked) [FL-DHPE, N-(Fluorescein-5-Thiocarbamoyl)-1,2-Dihexadecanoyl-sn-Glycero-3-Phosphoethanolamine]
levels of FL compared to cells treated with the antiCD19 antibody (5 μM FL-DHPE overnight): higher | presence of FL by flow cytometry (overnight 5 μM FL-DHPE or 20 min antiCD19 antibody labeled with FITC, compared to untreated control cells): positive shift
